Assay results: publication PMC3335792
Results are given in words; binding and its absence hold for the method and conditions named.

By UniProt entry, the sequences of proteins in these tests, tags left out.
UniProt P0A988: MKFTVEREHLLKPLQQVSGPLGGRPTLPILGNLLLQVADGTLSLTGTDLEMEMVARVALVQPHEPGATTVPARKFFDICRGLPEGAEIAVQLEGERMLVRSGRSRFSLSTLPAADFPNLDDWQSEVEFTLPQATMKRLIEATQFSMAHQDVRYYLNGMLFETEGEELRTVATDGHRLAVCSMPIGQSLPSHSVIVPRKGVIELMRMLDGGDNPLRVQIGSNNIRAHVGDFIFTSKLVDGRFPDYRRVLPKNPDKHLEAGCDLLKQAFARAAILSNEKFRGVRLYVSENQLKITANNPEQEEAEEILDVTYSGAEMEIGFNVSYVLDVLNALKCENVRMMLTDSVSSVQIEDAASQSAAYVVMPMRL
UniProt P15042: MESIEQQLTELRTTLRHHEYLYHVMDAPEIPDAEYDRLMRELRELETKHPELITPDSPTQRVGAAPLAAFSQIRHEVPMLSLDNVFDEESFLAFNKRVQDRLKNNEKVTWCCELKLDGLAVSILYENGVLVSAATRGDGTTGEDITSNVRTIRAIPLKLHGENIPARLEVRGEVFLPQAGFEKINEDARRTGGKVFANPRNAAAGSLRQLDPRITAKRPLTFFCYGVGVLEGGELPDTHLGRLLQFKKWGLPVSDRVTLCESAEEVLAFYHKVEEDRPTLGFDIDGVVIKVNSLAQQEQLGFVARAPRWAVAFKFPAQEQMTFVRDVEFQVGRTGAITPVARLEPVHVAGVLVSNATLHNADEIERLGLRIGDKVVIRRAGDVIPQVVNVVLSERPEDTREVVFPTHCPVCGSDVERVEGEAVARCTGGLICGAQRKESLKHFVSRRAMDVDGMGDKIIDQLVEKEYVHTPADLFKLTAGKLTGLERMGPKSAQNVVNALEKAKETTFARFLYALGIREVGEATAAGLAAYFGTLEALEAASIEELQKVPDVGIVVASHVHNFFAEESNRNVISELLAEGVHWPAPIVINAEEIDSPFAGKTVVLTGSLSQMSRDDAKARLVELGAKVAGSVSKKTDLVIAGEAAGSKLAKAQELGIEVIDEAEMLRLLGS

Assays:
[1] = biological target: T1, Mtbβ-clamp labeled with OregonGreen488 maleimide (Mtbβ-clamp^OG) (M. tuberculosis) (UniProt P9WNU1); assay: other fluorescence titration; OregonGreen488-labeled β-clamp (50 or 100 nM in the methods, 90 nM in the legend) titrated with the partner protein; 20 mM Tris-Cl pH 7.5, 8 mM MgCl2, 1 mM DTT, 0.2 mM EDTA, 50 mM NaCl, 0.5 mM ATP, 22°C; emission at 510 nm; apparent Kd; both purified
T1 sequence (chain, OregonGreen488 maleimide label (residue not stated)): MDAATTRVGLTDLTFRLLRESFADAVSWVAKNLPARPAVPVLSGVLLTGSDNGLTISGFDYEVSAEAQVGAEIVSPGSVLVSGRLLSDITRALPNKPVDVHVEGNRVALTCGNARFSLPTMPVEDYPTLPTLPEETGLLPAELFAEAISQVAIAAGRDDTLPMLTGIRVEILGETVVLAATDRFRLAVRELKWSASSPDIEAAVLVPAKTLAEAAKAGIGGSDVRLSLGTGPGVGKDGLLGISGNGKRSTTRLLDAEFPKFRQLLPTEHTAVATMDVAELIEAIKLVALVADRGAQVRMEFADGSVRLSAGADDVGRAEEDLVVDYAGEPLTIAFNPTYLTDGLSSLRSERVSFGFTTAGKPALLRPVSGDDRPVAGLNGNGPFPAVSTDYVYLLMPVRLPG

[2] = biological target: E. coli β-clamp labeled with OregonGreen488 (E. coli β-clamp^OG) (E. coli) (UniProt P0A988); assay: as above

## E. coli NAD+-dependent DNA ligase (E. coli LigA) (from UniProt P15042 1-671) (enzyme)
[1]
  binding: no binding

## M. tuberculosis NAD+-dependent DNA ligase (MtbLigA, Rv3014c) (from UniProt P9WNV1 1-691) (enzyme)
[2]
  binding: no binding
[1]
  binding: no binding
